The record followed here is paper doi:10.1101/2020.06.09.141986.

Sequences of proteins named here, by UniProt entry; tags and fusion partners are left off. A change or cut given only in a name is not applied to a line headed by its entry.
UniProt P31749: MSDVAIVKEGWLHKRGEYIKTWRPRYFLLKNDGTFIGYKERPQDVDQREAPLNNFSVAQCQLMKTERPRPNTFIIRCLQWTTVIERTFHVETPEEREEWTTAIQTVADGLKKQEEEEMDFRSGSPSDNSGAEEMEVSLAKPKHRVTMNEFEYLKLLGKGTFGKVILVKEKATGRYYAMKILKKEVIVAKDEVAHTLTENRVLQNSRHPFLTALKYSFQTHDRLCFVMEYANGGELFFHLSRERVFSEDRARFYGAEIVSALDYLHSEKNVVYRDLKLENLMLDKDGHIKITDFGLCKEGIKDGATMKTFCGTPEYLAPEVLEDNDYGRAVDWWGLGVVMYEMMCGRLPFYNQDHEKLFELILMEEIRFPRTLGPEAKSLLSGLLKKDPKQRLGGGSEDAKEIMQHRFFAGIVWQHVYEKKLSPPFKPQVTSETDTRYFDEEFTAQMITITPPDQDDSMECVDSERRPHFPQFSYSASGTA
UniProt P31750: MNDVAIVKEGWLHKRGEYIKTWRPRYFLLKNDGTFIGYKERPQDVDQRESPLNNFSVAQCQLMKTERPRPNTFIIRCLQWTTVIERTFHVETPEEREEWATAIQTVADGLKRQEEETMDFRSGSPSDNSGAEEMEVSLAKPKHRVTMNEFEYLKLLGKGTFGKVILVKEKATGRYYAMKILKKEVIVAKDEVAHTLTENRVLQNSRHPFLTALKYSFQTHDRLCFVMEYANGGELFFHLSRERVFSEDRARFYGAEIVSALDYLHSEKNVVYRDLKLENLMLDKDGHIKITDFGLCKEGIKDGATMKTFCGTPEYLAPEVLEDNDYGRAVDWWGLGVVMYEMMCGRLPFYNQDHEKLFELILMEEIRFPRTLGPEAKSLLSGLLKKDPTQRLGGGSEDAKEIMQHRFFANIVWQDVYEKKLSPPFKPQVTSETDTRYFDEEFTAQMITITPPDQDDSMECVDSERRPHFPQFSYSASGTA
UniProt P31751: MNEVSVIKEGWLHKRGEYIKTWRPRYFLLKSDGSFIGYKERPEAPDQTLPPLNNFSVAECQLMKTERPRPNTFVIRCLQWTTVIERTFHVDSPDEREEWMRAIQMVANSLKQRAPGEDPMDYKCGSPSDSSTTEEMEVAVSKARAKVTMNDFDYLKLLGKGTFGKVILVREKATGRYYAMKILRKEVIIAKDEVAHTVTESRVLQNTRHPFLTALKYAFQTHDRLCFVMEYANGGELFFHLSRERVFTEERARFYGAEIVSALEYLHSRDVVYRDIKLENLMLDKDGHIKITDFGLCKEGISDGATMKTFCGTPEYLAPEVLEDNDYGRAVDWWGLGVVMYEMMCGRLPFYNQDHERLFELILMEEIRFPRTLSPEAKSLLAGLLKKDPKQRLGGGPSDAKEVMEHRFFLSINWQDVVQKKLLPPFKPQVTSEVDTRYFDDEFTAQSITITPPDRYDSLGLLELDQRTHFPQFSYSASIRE

Numbering of substitutions follows the chain as printed. Names may count otherwise. Where two headings read alike, the source gives them in different places. No constants are given. Whether binding was seen depends on the method and setting. For some assays here: In cells and extracts the contact can be indirect. Some results given as binding are weak or reduced against the parent protein; the word gives no strength. For some assays here: Sequences can lack the tags named with a protein.

The target of experiment [1] is T1, Flag-Aldob (UniProt P05062).
T1 sequence: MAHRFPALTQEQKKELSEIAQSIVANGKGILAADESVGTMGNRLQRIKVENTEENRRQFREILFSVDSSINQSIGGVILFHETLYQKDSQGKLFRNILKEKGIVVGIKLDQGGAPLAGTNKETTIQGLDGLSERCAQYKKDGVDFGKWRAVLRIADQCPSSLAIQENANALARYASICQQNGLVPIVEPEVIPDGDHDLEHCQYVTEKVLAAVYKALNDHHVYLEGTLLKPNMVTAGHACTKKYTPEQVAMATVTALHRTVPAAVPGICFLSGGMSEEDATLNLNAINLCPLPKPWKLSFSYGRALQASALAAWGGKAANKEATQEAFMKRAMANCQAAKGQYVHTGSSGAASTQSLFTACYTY
The experiment in a line: co-IP.

Experiment [2] addresses T2, exogenous Aldob in LM3-Aldob cells (UniProt P05062).
T2 sequence: T1 sequence
The experiment in a line: co-IP.

The target in experiment [3] is Myc-Akt1 (UniProt P31749). The experiment in a line: co-IP.
The target of experiment [4] is Akt1, endogenous, mouse liver (mouse (endogenous in liver tissue)) (UniProt P31750). Briefly: co-IP.
Experiment [5] deals with T1, Flag-Aldob. Briefly: co-IP. The source holds these as a separate data set.
The target in experiment [6] is Akt1, endogenous, human liver tissue (human (endogenous in liver tissue)) (UniProt P31749). Briefly: co-IP.
For experiment [7], the target named is GST-Akt1 (UniProt P31749). The experiment in a line: pull-down.

Consider Akt1-S473A (from UniProt P31749 1-480), for which the binding entry in experiment [1] was “binds”.

Take Myc-Akt1 (from UniProt P31749 1-480): in experiment [1], the binding entry is given as “binds”.

Turning to “Akt1, endogenous, HCC cell lines (from UniProt P31749 1-480)”, the binding entry in experiment [1] and in experiment [2] was “binds” throughout.

As for Akt1-T308A (from UniProt P31749 1-480), in experiment [1], the binding result is reported as “binds”.

Take “Akt2 (ectopically expressed) (from UniProt P31751 1-481)”: in experiment [1], the binding result was “binds”.

B1: His-Aldob a.a. 1-155 (domain or fragment, UniProt P05062 1-155)
chain: MAHRFPALTQEQKKELSEIAQSIVANGKGILAADESVGTMGNRLQRIKVENTEENRRQFREILFSVDSSINQSIGGVILFHETLYQKDSQGKLFRNILKEKGIVVGIKLDQGGAPLAGTNKETTIQGLDGLSERCAQYKKDGVDFGKWRAVLRIA
As for B1, the binding result in experiment [3] is “no binding”.

B2: Aldolase B (Aldob), endogenous, mouse liver (protein, UniProt Q91Y97 1-364)
chain: MAHRFPALTPEQKKELSEIAQRIVANGKGILAADESVGTMGNRLQRIKVENTEENRRQFRELLFSVDNSISQSIGGVILFHETLYQKDSQGNLFRNVLKEKGIVVGIKLDQGGAPLAGTNKETTIQGLDGLSERCAQYKKDGVDFGKWRAVLRIADQCPSSLAIQENANALARYASICQQNGLVPIVEPEVLPDGDHDLEHCQYVSEKVLAAVYKALNDHHVYLEGTLLKPNMVTAGHACTKKYTPEQVAMATVTALHRTVPAAVPGICFLSGGMSEEDATLNLNAINRCPLPRPWKLSFSYGRALQASALAAWGGKAANKKATQEAFMKRAMANCQAAQGQYVHTGSSGAAATQSLFTASYTY
On to B2, for which the binding result in experiment [4] is “binds”.

B3: phosphoinositide-dependent kinase 1 (PDK1) (protein, UniProt O15530 1-556)
chain: MARTTSQLYDAVPIQSSVVLCSCPSPSMVRTQTESSTPPGIPGGSRQGPAMDGTAAEPRPGAGSLQHAQPPPQPRKKRPEDFKFGKILGEGSFSTVVLARELATSREYAIKILEKRHIIKENKVPYVTRERDVMSRLDHPFFVKLYFTFQDDEKLYFGLSYAKNGELLKYIRKIGSFDETCTRFYTAEIVSALEYLHGKGIIHRDLKPENILLNEDMHIQITDFGTAKVLSPESKQARANSFVGTAQYVSPELLTEKSACKSSDLWALGCIIYQLVAGLPPFRAGNEYLIFQKIIKLEYDFPEKFFPKARDLVEKLLVLDATKRLGCEEMEGYGPLKAHPFFESVTWENLHQQTPPKLTAYLPAMSEDDEDCYGNYDNLLSQFGCMQVSSSSSSHSLSASDTGLPQRSGSNIEQYIHDLDSNSFELDLQFSEDEKRLLLEKQAGGNPWHQFVENNLILKMGPVDKRKGLFARRRQLLLTEGPHLYYVDPVNKVLKGEIPWSQELRPEAKNFKTFFVHTPNRTYYLMDPSGNAHKWCRKIQEVWRQRYQSHPDAAVQ
For the molecule B3, in experiment [5], the binding result is “no binding”.

B4: His-Aldob R304A (protein, UniProt P05062 1-364)
chain: T1 sequence with R304A
In the case of B4, the binding result in experiment [3] is “binds weakly”.

B5: Aldolase B (Aldob), endogenous, human liver tissue (protein, UniProt P05062 1-364)
chain: T1 sequence
As for B5, the binding entry in experiment [6] was “binds”.

B6: His-Aldob R46A (protein, UniProt P05062 1-364)
chain: T1 sequence with R46A
As for B6, the binding result in experiment [3] is reported as “binds”.

B7: His-Aldob R149A (protein, UniProt P05062 1-364)
chain: T1 sequence with R149A
Take B7: the binding result in experiment [3] is reported as “binds”.

B8: His-Aldob (protein, UniProt P05062 1-364)
chain: T1 sequence
On to B8, for which the binding entry in experiment [3] and in experiment [7] was “binds” each time.

B9: His-Aldob K147A (protein, UniProt P05062 1-364)
chain: T1 sequence with K147A
As for B9, the binding entry in experiment [3] was “binds”.

B10: His-Aldob a.a. 1-240 (domain or fragment, UniProt P05062 1-240)
chain: MAHRFPALTQEQKKELSEIAQSIVANGKGILAADESVGTMGNRLQRIKVENTEENRRQFREILFSVDSSINQSIGGVILFHETLYQKDSQGKLFRNILKEKGIVVGIKLDQGGAPLAGTNKETTIQGLDGLSERCAQYKKDGVDFGKWRAVLRIADQCPSSLAIQENANALARYASICQQNGLVPIVEPEVIPDGDHDLEHCQYVTEKVLAAVYKALNDHHVYLEGTLLKPNMVTAGHAC
Turning to B10, the binding entry in experiment [3] was “no binding”.
